Laboratory results reported in the supplement of paper PMC12889115.
The list shows a part of the results. These are raw signals, not scaled to a control.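 In the initial screen, polymyxin B was used at a concentration that permeabilizes Salmonella's outer membrane but not its inner membrane. Maximum growth was set by DMSO wells with or without polymyxin B. Since plates varied, data were ranked per plate, and compounds giving the lowest OD600 advanced as hits.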

Tested on: Salmonella enterica serovar Typhimurium SL1344
Assay: bacterial growth OD600 after 18 h with compound and polymyxin B; higher = more bacterial growth (less inhibition)
Details: 50 µM, Mueller-Hinton broth

Compound | bacterial growth OD600 (polymyxin B 1 µg/mL) | bacterial growth OD600 (polymyxin B 0.75 µg/mL)
CN(c1ncccc1CNC(=O)c1cccnc1)C1CCCCC1 | 0.895 | 
COc1cccc(C(=O)C2CCCN(Cc3ccc(OC)c(C)c3OC)C2)c1 (configuration not stated) | 0.762 | 
O=C(CCc1cnccn1)N1CCCC(CCc2cccc(C(F)(F)F)c2)C1 (configuration not stated) |  | 0.555
CCOc1cc(CN2CCC3(CC2)c2ccccc2[C@@H](NC(=O)CC)[C@@H]3OCCOC)ccc1OC |  | 0.894
COc1ccc(OCC(=O)N2CCCC(CNC(=O)c3ccc(F)cc3)C2)cc1 (configuration not stated) | 0.888 | 
O=C(Cc1cccnc1)NCc1cccnc1Oc1cccc(C(F)(F)F)c1 |  | 0.778
COCc1ccc(C(=O)Nc2ccc(-c3nc(CNC(=O)Cc4csc(C)n4)c(C)o3)cc2)o1 |  | 0.839
CC(C(=O)N1CCC(CCC(=O)NCc2cccc(Cl)c2)CC1)n1cncn1 (configuration not stated) | 0.92 | 
CCC1C(=O)NCCN1c1ccc(-c2nc(CCCc3ccccc3)no2)cn1 (configuration not stated) |  | 0.006
CC(=O)NCCNC(=O)C1(N(C)C)Cc2ccccc2C1 |  | 0.825
Cc1c[nH]c(C(=O)N2CCC(C3CCN(Cc4ccc(Cl)cc4)C3)CC2)n1 (configuration not stated) |  | 0.787
COCCNC(=O)c1ccc(OC)cc1OC1CCN(Cc2nc3ccccc3[nH]2)CC1 |  | 0.951
Cc1cccc(NC(=O)CCC2CCN(C(=O)CCn3cncn3)CC2)c1 | 0.964 | 
O=C(Nc1cccc(-n2cccn2)c1)C1CCCN1C(=O)Cn1cccn1 (configuration not stated) | 1.18 | 
COc1cc(CC2(CCC(=O)N(Cc3c(C)nn(C)c3C)C(C)C)CCC(=O)N2)ccc1F (configuration not stated) |  | 0.822
O=C(Nc1cccc(-n2cccn2)c1)C1CCCN1C(=O)C1CCC1 (configuration not stated) | 0.938 | 

A few values from the entries so far.
bacterial growth OD600 (polymyxin B 0.75 µg/mL) with CCOc1cc(CN2CCC3(CC2)c2ccccc2[C@@H](NC(=O)CC)[C@@H]3OCCOC)ccc1OC reads 0.894
bacterial growth OD600 (polymyxin B 0.75 µg/mL) with COCc1ccc(C(=O)Nc2ccc(-c3nc(CNC(=O)Cc4csc(C)n4)c(C)o3)cc2)o1 reads 0.839
bacterial growth OD600 (polymyxin B 1 µg/mL) with COc1cccc(C(=O)C2CCCN(Cc3ccc(OC)c(C)c3OC)C2)c1 (configuration not stated) reads 0.762

Additional compounds

Compound | bacterial growth OD600 (polymyxin B 1 µg/mL) | bacterial growth OD600 (polymyxin B 0.75 µg/mL)
Cc1ccccc1Cn1cc(C(=O)N(C)Cc2ccccc2Cl)nn1 | 0.011 | 
COc1ccc(C(=O)NC(C)CCCC(C)(C)O)cc1OC1CCN(C(C)=O)CC1 (configuration not stated) | 0.982 | 
COc1cccc(CC2(CO)CCCN(Cc3ccc(F)c(OC)c3)C2)c1 (configuration not stated) | 0.852 | 
CC[C@H](C)[C@H](NC1CCN(c2nc(C)c3cc(OC)ccc3n2)CC1)C(=O)OC |  | 0.01
C=C(C)CNc1ccc(C(=O)N2CCCN(c3ncccn3)CC2)cn1 | 0.871 | 
O=C(Nc1ccccc1Oc1cccnc1)C1CCCN(CCc2ccccc2)C1 (configuration not stated) | 1.05 | 
COCCN1CC(C(=O)NCCc2ccccc2C)CCC1=O (configuration not stated) | 0.901 | 
Cc1nc(-c2ccncc2)ncc1C(C)NC1CCSCC1 (configuration not stated) | 0.942 | 
CC(C)CN1CCC(C2CCN(C(=O)C3(C(F)(F)F)CC3)C2)CC1 (configuration not stated) |  | 0.844
COc1ccc(-n2cc(CN(C)C3CCOCC3)c(-c3cccc(F)c3)n2)cc1 | 0.915 | 
Cc1cccc(-c2cnc(-c3ccncc3)nc2C2CCN(C(=O)c3ccc4[nH]ccc4c3)CC2)c1 |  | 0.083
Cc1ccn(CC(=O)N2CCC(n3nccc3NC(=O)C(C)(C)C)CC2)n1 | 1.07 | 
COc1cccc(CNC2CCC2)c1OCC(O)CN1CCOCC1 (configuration not stated) | 1.12 | 
COc1ccc(CC2(CCC(=O)NCc3ccccc3C(F)(F)F)CCC(=O)N2)c(F)c1 (configuration not stated) |  | 0.75
O=C1CC[C@@H](C(=O)NCc2cccnc2Oc2ccccc2)N1 | 0.882 | 
CC#CCN1C(=O)NC(CCCc2ccccc2)(C2CCN(Cc3ccccc3O)CC2)C1=O (configuration not stated) |  | 0.785
